In publication PMC12455474:
pKd: −log10 of the molar value. Construct, isoform or probe ends are uncertain for at least one entry.

Experiments:
[1] = tested on: human alpha-thrombin (human); experiment: binding assay; settings: Carriers (200 pM total) incubated with protein at 37 °C for 2 h; nanopore measurement in 100 mM KCl, 10 mM Tris-EDTA pH 8.0, -300 mV; commercial protein; folded or branched DNA
PDGF-BB (human) = PDGF-BB (human) (UniProt P01127); experiment: binding assay; settings: Carriers (200 pM total) incubated with protein at 37 °C for 2 h; nanopore measurement in 100 mM KCl, 10 mM Tris-EDTA pH 8.0, -300 mV; recombinant protein; folded or branched DNA

Row | Sequence | pKd [1] | pKd (PDGF-BB (human))
1 | AGTCCGTGGTAGGGCAGGTTGGGGTGACT [HD22 (29-mer)] | 8.46 | –
2 | CACAGGCTACGGCACGTAGAGCATCACCATGATCCTGTG [PDGF 39-mer aptamer] | – | 10.00
3 | GGTTGGTGTGGTTGG [HD1 (TBA, 15-mer)] | 7.69 | –
